Results on three molecules are retold here after publication PMC10482377, “Septum site placement in Mycobacteria – identification and characterisation of mycobacterial homologues of Escherichia coli MinD” (Microbiology, 2023).

Chains of the proteins cited; added tags and fusions are not shown.
UniProt O33208: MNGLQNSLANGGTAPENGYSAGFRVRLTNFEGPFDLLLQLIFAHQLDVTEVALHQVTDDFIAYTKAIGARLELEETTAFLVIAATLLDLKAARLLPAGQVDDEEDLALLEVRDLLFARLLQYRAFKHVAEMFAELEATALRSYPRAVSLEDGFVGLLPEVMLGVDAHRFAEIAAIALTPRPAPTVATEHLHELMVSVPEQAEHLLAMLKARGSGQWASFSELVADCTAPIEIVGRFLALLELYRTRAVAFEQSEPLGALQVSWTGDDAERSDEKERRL

No constants are given. Whether binding was seen depends on the method and setting. For part of these data: In cells and extracts the contact can be indirect. Some binding calls cover weakened binding; strength is not graded here. Sequences can lack the tags named with a protein.

The target of experiment [1] is T1, Rv1708 (MPFC bait fusion) (M. tuberculosis) (UniProt P9WLT1).
T1 sequence: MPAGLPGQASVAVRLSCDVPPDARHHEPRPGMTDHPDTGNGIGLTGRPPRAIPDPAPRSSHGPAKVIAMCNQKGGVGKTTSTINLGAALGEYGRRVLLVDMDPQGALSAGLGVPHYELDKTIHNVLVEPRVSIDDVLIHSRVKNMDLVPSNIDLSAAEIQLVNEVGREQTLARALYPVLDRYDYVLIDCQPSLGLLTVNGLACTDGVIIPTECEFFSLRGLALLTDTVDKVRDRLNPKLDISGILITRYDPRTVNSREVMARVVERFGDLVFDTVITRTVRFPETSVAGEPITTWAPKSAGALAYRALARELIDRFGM
The experiment in a line: split reporter.

Experiment [2] deals with T2, GST-Rv1708 (M. tuberculosis) (UniProt P9WLT1).
T2 sequence: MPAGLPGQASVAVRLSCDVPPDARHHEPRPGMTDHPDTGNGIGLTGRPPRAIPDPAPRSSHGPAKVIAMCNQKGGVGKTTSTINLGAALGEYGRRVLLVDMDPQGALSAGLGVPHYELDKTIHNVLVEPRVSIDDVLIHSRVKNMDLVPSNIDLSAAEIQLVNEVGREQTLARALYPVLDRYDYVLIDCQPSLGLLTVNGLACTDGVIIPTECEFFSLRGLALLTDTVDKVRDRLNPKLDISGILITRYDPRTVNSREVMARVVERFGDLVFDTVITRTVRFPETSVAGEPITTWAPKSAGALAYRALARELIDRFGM
Nature of the experiment: pull-down; equimolar bait (GST-Rv1708) and prey (His-tagged) incubated O/N at 4 °C in PBS + 0.1 % Triton X-100, then GSH beads 4 h at 4 °C; washed; Western blot with anti-6xHis; both purified. In general terms: A western blot detects proteins with antibodies after separation by electrophoresis.

“M. tb ScpA (MPFC prey fusion) (from UniProt O33208 1-278)”: the binding entry in experiment [1] is on record as “binds”.
“M. tb ScpA with C-terminal 6xHis-tag (from UniProt O33208 1-278)”: the binding entry in experiment [2] is listed as “binds”.

B1: M. tb ParB (MPFC prey fusion) (protein, UniProt P9WIJ9 1-344)
chain: MTQPSRRKGGLGRGLAALIPTGPADGESGPPTLGPRMGSATADVVIGGPVPDTSVMGAIYREIPPSAIEANPRQPRQVFDEEALAELVHSIREFGLLQPIVVRSLAGSQTGVRYQIVMGERRWRAAQEAGLATIPAIVRETGDDNLLRDALLENIHRVQLNPLEEAAAYQQLLDEFGVTHDELAARIGRSRPLITNMIRLLKLPIPVQRRVAAGVLSAGHARALLSLEAGPEAQEELASRIVAEGLSVRATEETVTLANHEANRQAHHSDATTPAPPRRKPIQMPGLQDVAERLSTTFDTRVTVSLGKRKGKIVVEFGSVDDLARIVGLMTTDGRDKGLHRDAL
On to B1, for which, in experiment [1], the binding entry is reported as “binds”.
